Experimental data from publication PMC6615859.
These are yes or no findings as the source states them, for the method shown. In cells and extracts the contact can be indirect. Some entries that bind do so weakly or less than the wild type. For some assays here: Sequences can lack the tags named with a protein.

Experiments:
[1] = target: KHNYN-1-FLAG (human), O15037; experiment: co-IP; anti-FLAG antibody and Protein G Dynabeads on post-nuclear supernatants of HEK293T cells transfected with KHNYN-FLAG; blots for ZAP and TRIM25; lysis buffer 0.5% NP-40, 150 mM KCl, 10 mM HEPES pH 7.5, 3 mM MgCl2; 4°C; also in Control, TRIM25 CRISPR and ZAP CRISPR HEK293T cells; details: remark: other sources report otherwise
[2] = target: ZAP-S, endogenous in HEK293T cells (human (endogenous in HEK293T)), Q7Z2W4; experiment: co-IP; anti-ZAP antibody (Abcam) and Protein G Dynabeads on post-nuclear supernatants of HEK293T cells transfected with KHNYN-FLAG; blot for FLAG; lysis buffer 0.5% NP-40, 150 mM KCl, 10 mM HEPES pH 7.5, 3 mM MgCl2; 4°C; details: remark: other sources report otherwise

Row | binding [1] | binding [2] | Binder
1 | binds |  | ZAP-S, endogenous in HEK293T cells, Q7Z2W4-2 1-699 (protein) MADPEVCCFITKILCAHGGRMALDALLQEIALSEPQLCEVLQVAGPDRFVVLETGGEAGITRSVVATTRARVCRRKYCQRPCDNLHLCKLNLLGRCNYSQSERNLCKYSHEVLSEENFKVLKNHELSGLNKEELAVLLLQSDPFFMPEICKSYKGEGRQQICNQQPPCSRLHICDHFTRGNCRFPNCLRSHNLMDRKVLAIMREHGLNPDVVQNIQDICNSKHMQKNPPGPRAPSSHRRNMAYRARSKSRDRFFQGSQEFLASASASAERSCTPSPDQISHRASLEDAPVDDLTRKFTYLGSQDRARPPSGSSKATDLGGTSQAGTSQRFLENGSQEDLLHGNPGSTYLASNSTSAPNWKSLTSWTNDQGARRKTVFSPTLPAARSSLGSLQTPEAVTTRKGTGLLSSDYRIINGKSGTQDIQPGPLFNNNADGVATDITSTRSLNYKSTSSGHREISSPRIQDAGPASRDVQATGRIADDADPRVALVNDSLSDVTSTTSSRVDDHDSEEICLDHLCKGCPLNGSCSKVHFHLPYRWQMLIGKTWTDFEHMETIEKGYCNPGIHLCSVGSYTINFRVMSCDSFPIRRLSTPSSVTKPANSVFTTKWIWYWKNESGTWIQYGEEKDKRKNSNVDSSYLESLYQSCPRGVVPFQAGSRNYELSFQGMIQTNIASKTQKDVIRRPTFVPQWYVQQMKRGPE
2 |  | binds | KHNYN-1-FLAG, O15037 1-678 (protein) MPTWGARPASPDRFAVSAEAENKVREQQPHVERIFSVGVSVLPKDCPDNPHIWLQLEGPKENASRAKEYLKGLCSPELQDEIHYPPKLHCIFLGAQGFFLDCLAWSTSAHLVPRAPGSLMISGLTEAFVMAQSRVEELAERLSWDFTPGPSSGASQCTGVLRDFSALLQSPGDAHREALLQLPLAVQEELLSLVQEASSGQGPGALASWEGRSSALLGAQCQGVRAPPSDGRESLDTGSMGPGDCRGARGDTYAVEKEGGKQGGPREMDWGWKELPGEEAWEREVALRPQSVGGGARESAPLKGKALGKEEIALGGGGFCVHREPPGAHGSCHRAAQSRGASLLQRLHNGNASPPRVPSPPPAPEPPWHCGDRGDCGDRGDVGDRGDKQQGMARGRGPQWKRGARGGNLVTGTQRFKEALQDPFTLCLANVPGQPDLRHIVIDGSNVAMVHGLQHYFSSRGIAIAVQYFWDRGHRDITVFVPQWRFSKDAKVRESHFLQKLYSLSLLSLTPSRVMDGKRISSYDDRFMVKLAEETDGIIVSNDQFRDLAEESEKWMAIIRERLLPFTFVGNLFMVPDDPLGRNGPTLDEFLKKPARTQGSSKAQHPSRGFAEHGKQQQGREEEKGSGGIRKTRETERLRRQLLEVFWGQDHKVDFILQREPYCRDINQLSEALLSLNF
